# Percent effect of library compounds

The chains behind the UniProt entries cited, without tags or fusion partners. Residues count along the entry.
UniProt A4I591, 1-473: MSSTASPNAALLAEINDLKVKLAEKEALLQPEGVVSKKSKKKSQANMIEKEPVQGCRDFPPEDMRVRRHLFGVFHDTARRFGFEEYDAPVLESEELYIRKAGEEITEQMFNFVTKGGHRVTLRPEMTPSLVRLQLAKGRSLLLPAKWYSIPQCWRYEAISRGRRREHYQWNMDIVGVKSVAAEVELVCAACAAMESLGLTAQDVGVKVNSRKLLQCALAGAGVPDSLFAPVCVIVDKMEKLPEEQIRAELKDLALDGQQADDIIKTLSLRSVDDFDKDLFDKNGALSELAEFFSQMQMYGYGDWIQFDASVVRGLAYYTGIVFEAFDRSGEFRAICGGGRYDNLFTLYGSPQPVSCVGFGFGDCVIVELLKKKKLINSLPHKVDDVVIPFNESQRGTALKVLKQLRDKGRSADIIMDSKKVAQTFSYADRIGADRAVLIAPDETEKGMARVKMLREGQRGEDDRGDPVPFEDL

The values are deposited in ChEMBL (CHEMBL3988442, “University of Dundee, Small-Polar-MMV Screening Library” (2021)).

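Histidine-tRNA ligase, Leishmania infantum (UniProt A4I591). Enzyme assay of histidyl-tRNA synthetase; the read-out is not stated. Concentration: 30 µM. The record gives no direction; compounds that gave an IC50 in retests scored well above the rest, so higher reads as stronger inhibition. The assay is labelled LdHisRS but filed under L. infantum. Size under these conditions: about 69,000 compounds, about 410 of them at 50% or above in at least one test.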

Values are the deposited “Percent Effect”, in %. The record does not define 0% and 100%; most values in the screen are far below 50% and negative numbers occur (in some assays of this library far below -100). The compounds are a random part of those screened.

structure: O=C(O)c1csc(S(=O)(=O)Nc2cccc(OCC(F)(F)F)c2)c1
effect: 16.98%

structure: O=c1[nH]c(-c2cccnc2)nc2c1CCN(S(=O)(=O)N1CCCC1)C2
effect: 15.05%

structure: COc1ccc(C(=O)NCC(c2cccn2C)N2CCN(C)CC2)cc1 (configuration not stated)
effect: 9.589%

structure: CCOc1cc(Cl)ccc1CNC(=O)N(C)CC(C)(C)O
effect: -2.469%

structure: CC(C)CN1CC2(CCN(C(=O)C(O)c3cccc(Cl)c3)CC2)CC1=O (configuration not stated)
effect: 25%

structure: c1cncc(-c2nccc(CN3CCCC3)n2)c1
effect: 27.78%

structure: O=C1NCC(C(=O)NCc2ccccc2CN2CCOCC2)N1 (configuration not stated)
effect: 7.254%

structure: COc1c(CNCc2cccnc2N2CCCCC2)c(C)nn1C
effect: 3.191%

structure: Cc1cccc(-c2nc(CN3CCCCC3Cn3cncn3)no2)c1 (configuration not stated)
effect: 8.8%

structure: CC(C)NC(=O)N1CCC2(CC1)CCn1c(C3CC3)cnc12
effect: -6.838%

structure: COc1ccccc1CN1CCc2c(nc(-c3ccccn3)[nH]c2=O)C1
effect: 5.208%

structure: CCC(NC(=O)C1CCN(C(=O)C2CC2)CC1)c1cn2cccnc2n1 (configuration not stated)
effect: 24.29%

structure: CCc1cnc(N2CC3(CCN(Cc4ccsc4)C3)C2)nc1
effect: 5.882%

structure: Cc1ccc(NC2CCN(C(=O)CCC3CCCO3)CC2)nn1 (configuration not stated)
effect: 13.7%

structure: O=C(c1ccccn1)N1CCOC2(COCCN(Cc3cc[nH]n3)C2)C1 (configuration not stated)
effect: 5.983%

structure: CN1CCC(Cc2cc(Nc3ncccn3)ncn2)CC1
effect: 5.556%

structure: OCCN1CCC(CNCCOCC(F)(F)F)CC1
effect: 6.667%

structure: N#Cc1cn(CC(=O)NC2CC2)c2ccc(Br)cc2c1=O
effect: 18.45%

structure: O=C(Cn1cnc2sccc2c1=O)NCCCc1nnc2ccccn12
effect: 5%

structure: C=C(C)CN(CC)C(=O)c1cc(C)ccc1NS(C)(=O)=O
effect: 12.9%

structure: COc1ccc(COCC(=O)N2CCC(c3nncn3C)CC2)cc1
effect: 11.96%

structure: CC1(C)CN(C(=O)c2ccccc2-n2cncn2)CC1(C)O (configuration not stated)
effect: 11.83%

structure: Cn1ccnc1C(=O)NC[C@H]1OC[C@@H]2CCN(S(C)(=O)=O)C[C@@H]21
effect: -4%

structure: CCO[C@@H]1CN(Cc2scnc2C)[C@@H]2CCCO[C@@H]21
effect: 19.74%

structure: Cc1nnc2n1CCN(C(=O)c1cnc(C3CC3)s1)C2
effect: 14.52%

structure: Cc1noc(C)c1CN1C[C@@H]2CN(C(=O)c3cnccn3)C[C@@H]2C1
effect: 28.07%

structure: CCn1cc2c(n1)CN(Cc1nccs1)CC2COCC1CC1 (configuration not stated)
effect: 10.95%

structure: COc1cccc(C2CCCN2C(=O)c2ccc(=O)n(C)c2)c1 (configuration not stated)
effect: 24.24%

structure: Cn1ccnc1CN1C[C@@H](CN2CCCCC2)[C@@H](CO)C1
effect: 9.434%

structure: CN(CC(N)=O)CC(=O)N1CC=C(c2ccccc2)CC1
effect: 8.475%

structure: O=C(Cc1cccs1)N1Cc2nc(COCC3CC3)oc2C1
effect: 33.33%

structure: CCc1nnsc1C(=O)N1CCN(CC(O)C(C)(C)C)CC1 (configuration not stated)
effect: 17.65%

structure: CC(=O)Nc1nc(C(=O)N2CCCC(n3ccnc3)C2)cs1 (configuration not stated)
effect: 4.545%

structure: CNc1cc(N2CCCC2CNCc2c[nH]nc2C(C)(C)C)ncn1 (configuration not stated)
effect: 11.54%

structure: CCC(C)N1Cc2c(C(=O)N3CCCC3)nn(C)c2C1 (configuration not stated)
effect: 17.09%

structure: CNCc1ccc(Oc2cncc(C)n2)cc1
effect: 14.58%

structure: Cc1cc(N2CCN(C(=O)c3cc(Cl)c[nH]3)CC2)nc(N)n1
effect: 15.24%

structure: CC1c2ncc(Cn3cccn3)n2CCN1c1ncccn1 (configuration not stated)
effect: 17.82%

4 of the entries, repeated:

CC(C)CN1CC2(CCN(C(=O)C(O)c3cccc(Cl)c3)CC2)CC1=O (configuration not stated) read 25%.
N#Cc1cn(CC(=O)NC2CC2)c2ccc(Br)cc2c1=O read 18.45%.
C=C(C)CN(CC)C(=O)c1cc(C)ccc1NS(C)(=O)=O read 12.9%.
COc1ccc(COCC(=O)N2CCC(c3nncn3C)CC2)cc1 read 11.96%.